No constants are given. Whether binding was seen depends on the method and setting. Binding seen in cells or lysates may run through a third protein. Binding calls can cover weak binding; strength is not graded here. Tags and fused reporters may be left off the sequences shown.
T1: Flag-SIRT2 (UniProt Q8IXJ6)
T1 sequence: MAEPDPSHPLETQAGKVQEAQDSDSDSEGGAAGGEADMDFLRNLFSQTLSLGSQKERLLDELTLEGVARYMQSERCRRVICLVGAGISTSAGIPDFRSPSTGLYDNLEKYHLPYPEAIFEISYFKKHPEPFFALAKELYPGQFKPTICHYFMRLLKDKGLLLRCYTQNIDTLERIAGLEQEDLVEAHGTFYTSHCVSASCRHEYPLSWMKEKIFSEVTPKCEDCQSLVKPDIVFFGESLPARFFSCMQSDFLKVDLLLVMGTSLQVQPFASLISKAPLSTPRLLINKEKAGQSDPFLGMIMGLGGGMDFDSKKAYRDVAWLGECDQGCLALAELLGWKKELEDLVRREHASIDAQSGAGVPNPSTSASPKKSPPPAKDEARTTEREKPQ

B1: Myc-SIRT2 (protein, UniProt Q8IXJ6 1-389)
chain: T1 sequence
B2: SIRT2 truncated mutant (residues 90 to 240) (domain or fragment, UniProt Q8IXJ6 90-240)
chain: SAGIPDFRSPSTGLYDNLEKYHLPYPEAIFEISYFKKHPEPFFALAKELYPGQFKPTICHYFMRLLKDKGLLLRCYTQNIDTLERIAGLEQEDLVEAHGTFYTSHCVSASCRHEYPLSWMKEKIFSEVTPKCEDCQSLVKPDIVFFGESLP

Columns and labels:
Flag-SIRT2 = molecular target: T1, Flag-SIRT2; test: co-IP; HEK293T cells cotransfected with a Flag-tagged and a Myc-tagged construct; immunoprecipitation with anti-Flag antibody, immunoblotting with antibodies against Myc and Flag
HRD1-Flag = test: as above

Molecule	binding (Flag-SIRT2)	binding (HRD1-Flag)
N terminus of HRD1 containing the RING-finger domain (residues 1 to 337) (domain or fragment)	binds	
HRD1-Myc	binds	
B1		binds
B2		binds

— paper PMC7076256
